Results published in patent publication US10611757B2, “Crystalline form of chemical compound, and preparation method, composition, and application thereof” (WUHAN LL SCIENCE AND TECHNOLOGY DEVELOPMENT CO., LTD., priority 2016, dated 2020).
Some of these results come from one statement about several compounds together.

Tested on: spontaneously hypertensive rats
Assay: Antihypertensive efficacy test in spontaneously hypertensive rats (systolic blood pressure and heart rate by implanted sensor)
Format: in vivo, rat
Conditions: SHR, intragastric, 1 mg/kg; systolic blood pressure
Description: 12-week-old spontaneously hypertensive rats (hereinafter referred to as SHR, purchased from Beijing Weitong Lihua Experimental Animal Technology Co., Ltd.) were anesthetized with 2.5% sodium pentobarbital for intraperitoneal injection. After that, the blood pressure sensing catheter of hypertension implant was inserted into their abdominal aorta, while the implant was fixed to the abdominal wall, and then postoperative daily care was performed after suturing.
Rats with systolic blood pressure exceeding 160 mm Hg were divided into 3 groups (control group, compound (A) group and compound (B) group), wherein each group has 8 rats. The control group was administrated 0.5% sodium carboxymethyl cellulose (hereinafter referred to as CMC-Na); the compound (B) group and the compound (A) group were respectively administered the compound (B) and the compound (A), both of which were dissolved by 0.5% CMC-Na, by intragastric administration, at a dose of 1 mg/kg (calculated by the effective dose of valsartan) and a volume calculated by 4 mL/kg.
The systolic blood pressure and heart rate of SHR were compared before and after administration (the systolic blood pressure and heart rate of SHR before administration as reference value), which were detected three times at each time point with the average value recorded.

`CCOc1nc2cccc(C(=O)OC(C)OC(=O)OCc3nc(C)c(C)nc3C)c2n1Cc1ccc(-c2ccccc2-c2noc(=O)[nH]2)cc1` (stereo not shown) [Compound (B), reference compound] was tested, and the “time of peak drug efficacy after administration” value was 5 to 7 h.
